Measurements reported in patent US20200369728A1, “PEPTIDOMIMETIC MACROCYCLES AND USES THEREOF” (Aileron Therapeutics, Inc., priority 2015, published 2020).
At least one structure is not confirmed: it was looked up by name or label, or the drawing left a doubt.

Columns and labels:
MV4-11 = assay: WST-1 / MTT cell viability, MV4-11; conditions: MV4-11, sequential treatment, 72 hrs
MCF-7 [1] = assay: WST-1 / MTT cell proliferation assay, MCF-7 (single agents and combinations); format: cell-based, human; conditions: single agent, 5 days
MCF-7 [2] = assay: CyQUANT cell viability, MCF-7; format: cell-based, human; conditions: MCF-7, sequential treatment, 72 hrs
Description: Cells were also evaluated for viability using the CyQUANT method after beginning treatment (FIGS. 78A and 79A). Cells were evaluated for viability using the CyQUANT method after beginning the simultaneous treatments (FIGS. 78B and 79B). […] The data were expressed as log(CI).
The anticancer activity of the combination treatment was assessed based on the order of addition of the drugs.

Structure (SMILES): Nc1ncn([C@H]2C[C@H](O)[C@@H](CO)O2)c(=O)n1 [decitabine, reference compound]
- order of addition: effect on cell growth, AP1 and decitabine (MV4-11): suppressed MV4-11 cell growth with or without AP1

Structure (SMILES): CO[C@@H]1[C@H](N(C)C(=O)c2ccccc2)C[C@H]2O[C@]1(C)n1c3ccccc3c3c4c(c5c6ccccc6n2c5c31)C(=O)NC4 [midostaurin, reference compound]
- order of addition: effect on cell growth, AP1 and midostaurin (MV4-11): suppressed MV4-11 cell growth with or without AP1

Structure (SMILES): CC(=O)c1c(C)c2cnc(Nc3ccc(N4CCNCC4)cn3)nc2n(C2CCCC2)c1=O [palbociclib, reference compound]
- effect on MCF-7 cell proliferation (MCF-7 [1]): inhibited MCF-7 breast cancer cell proliferation with limited cell killing as a single agent
- order of addition: effect on cell growth, AP1 and palbociclib (MCF-7 [2]): suppressed MCF-7 cell growth with or without AP1
